No constants are given. Whether binding was seen depends on the method and setting. In cells and extracts the contact can be indirect. Some results given as binding are weak or reduced against the parent protein; the word gives no strength.

The chains behind the UniProt entries cited, without tags or fusion partners. Where a name states a change or a piece, a line headed by the entry shows the natural chain unless it says otherwise. A line that says so, or that is headed by a name, gives the form on record, which may keep a tag or linker.
3 × FLAG-tagged ZSWIM8, stably expressed in C2C12 cells (A7E2V4, form named): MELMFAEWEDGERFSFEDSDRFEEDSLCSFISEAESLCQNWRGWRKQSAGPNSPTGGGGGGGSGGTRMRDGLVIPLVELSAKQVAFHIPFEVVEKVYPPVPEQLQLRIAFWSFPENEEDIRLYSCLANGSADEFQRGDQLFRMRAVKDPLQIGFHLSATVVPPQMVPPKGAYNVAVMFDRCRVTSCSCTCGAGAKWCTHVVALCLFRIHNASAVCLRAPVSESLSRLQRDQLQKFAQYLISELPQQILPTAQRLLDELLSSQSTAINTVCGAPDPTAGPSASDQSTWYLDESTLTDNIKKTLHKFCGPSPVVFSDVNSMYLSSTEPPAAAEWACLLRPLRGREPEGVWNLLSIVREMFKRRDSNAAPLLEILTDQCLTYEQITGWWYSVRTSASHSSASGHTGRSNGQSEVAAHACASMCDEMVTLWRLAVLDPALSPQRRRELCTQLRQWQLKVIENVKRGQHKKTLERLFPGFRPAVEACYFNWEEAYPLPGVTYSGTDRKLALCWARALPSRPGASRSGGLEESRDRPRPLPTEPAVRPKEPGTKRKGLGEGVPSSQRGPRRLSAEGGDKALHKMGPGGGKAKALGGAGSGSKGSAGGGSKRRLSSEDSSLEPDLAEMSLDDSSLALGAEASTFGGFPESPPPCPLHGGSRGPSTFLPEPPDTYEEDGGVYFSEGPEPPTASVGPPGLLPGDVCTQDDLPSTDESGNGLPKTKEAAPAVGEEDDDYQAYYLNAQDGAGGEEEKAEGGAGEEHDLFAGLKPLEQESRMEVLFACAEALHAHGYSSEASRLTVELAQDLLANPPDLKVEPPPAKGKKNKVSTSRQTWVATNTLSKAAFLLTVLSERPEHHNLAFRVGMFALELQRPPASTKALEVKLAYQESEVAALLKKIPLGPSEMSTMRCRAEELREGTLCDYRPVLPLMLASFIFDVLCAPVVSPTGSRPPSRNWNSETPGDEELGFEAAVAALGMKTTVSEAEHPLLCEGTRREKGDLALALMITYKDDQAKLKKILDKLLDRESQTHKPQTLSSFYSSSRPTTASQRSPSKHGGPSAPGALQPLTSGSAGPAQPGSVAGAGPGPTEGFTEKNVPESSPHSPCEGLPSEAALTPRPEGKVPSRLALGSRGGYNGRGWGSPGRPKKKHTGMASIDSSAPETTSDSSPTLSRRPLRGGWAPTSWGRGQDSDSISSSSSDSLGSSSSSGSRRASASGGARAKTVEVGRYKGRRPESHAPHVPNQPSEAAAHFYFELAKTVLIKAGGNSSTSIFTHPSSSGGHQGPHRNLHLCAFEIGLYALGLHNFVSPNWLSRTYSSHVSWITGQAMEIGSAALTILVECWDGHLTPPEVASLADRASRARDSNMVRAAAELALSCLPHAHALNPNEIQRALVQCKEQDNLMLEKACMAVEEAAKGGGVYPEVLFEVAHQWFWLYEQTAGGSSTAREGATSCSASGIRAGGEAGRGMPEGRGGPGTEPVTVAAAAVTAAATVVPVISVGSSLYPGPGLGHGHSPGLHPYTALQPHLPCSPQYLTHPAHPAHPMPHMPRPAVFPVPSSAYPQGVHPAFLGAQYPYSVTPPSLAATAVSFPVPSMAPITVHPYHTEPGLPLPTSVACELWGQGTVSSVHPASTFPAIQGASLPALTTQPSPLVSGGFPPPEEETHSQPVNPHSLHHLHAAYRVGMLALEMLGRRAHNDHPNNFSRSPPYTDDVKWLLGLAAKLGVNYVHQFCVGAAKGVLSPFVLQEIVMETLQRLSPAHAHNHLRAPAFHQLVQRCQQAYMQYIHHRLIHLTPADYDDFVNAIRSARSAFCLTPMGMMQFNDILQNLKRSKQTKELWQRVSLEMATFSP
UniProt Q9D4H8: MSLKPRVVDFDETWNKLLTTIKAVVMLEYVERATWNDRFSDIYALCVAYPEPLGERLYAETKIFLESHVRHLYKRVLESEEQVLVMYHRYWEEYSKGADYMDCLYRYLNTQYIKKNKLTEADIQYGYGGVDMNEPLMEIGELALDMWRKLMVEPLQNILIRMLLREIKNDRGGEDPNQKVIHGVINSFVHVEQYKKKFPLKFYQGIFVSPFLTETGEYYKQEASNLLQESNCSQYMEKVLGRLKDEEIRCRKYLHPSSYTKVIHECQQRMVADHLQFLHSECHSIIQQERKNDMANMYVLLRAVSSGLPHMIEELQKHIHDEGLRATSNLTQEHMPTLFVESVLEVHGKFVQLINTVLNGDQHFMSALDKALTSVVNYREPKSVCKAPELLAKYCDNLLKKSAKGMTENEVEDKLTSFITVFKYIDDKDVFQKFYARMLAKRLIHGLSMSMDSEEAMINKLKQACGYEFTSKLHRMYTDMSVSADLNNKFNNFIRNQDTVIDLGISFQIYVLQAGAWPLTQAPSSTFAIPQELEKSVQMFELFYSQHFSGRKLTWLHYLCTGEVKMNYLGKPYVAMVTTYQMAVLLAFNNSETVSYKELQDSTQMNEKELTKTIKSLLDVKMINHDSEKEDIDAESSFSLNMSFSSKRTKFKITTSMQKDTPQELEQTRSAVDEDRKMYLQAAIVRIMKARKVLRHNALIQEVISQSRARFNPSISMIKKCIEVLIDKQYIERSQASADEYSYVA
UniProt Q3UHH1: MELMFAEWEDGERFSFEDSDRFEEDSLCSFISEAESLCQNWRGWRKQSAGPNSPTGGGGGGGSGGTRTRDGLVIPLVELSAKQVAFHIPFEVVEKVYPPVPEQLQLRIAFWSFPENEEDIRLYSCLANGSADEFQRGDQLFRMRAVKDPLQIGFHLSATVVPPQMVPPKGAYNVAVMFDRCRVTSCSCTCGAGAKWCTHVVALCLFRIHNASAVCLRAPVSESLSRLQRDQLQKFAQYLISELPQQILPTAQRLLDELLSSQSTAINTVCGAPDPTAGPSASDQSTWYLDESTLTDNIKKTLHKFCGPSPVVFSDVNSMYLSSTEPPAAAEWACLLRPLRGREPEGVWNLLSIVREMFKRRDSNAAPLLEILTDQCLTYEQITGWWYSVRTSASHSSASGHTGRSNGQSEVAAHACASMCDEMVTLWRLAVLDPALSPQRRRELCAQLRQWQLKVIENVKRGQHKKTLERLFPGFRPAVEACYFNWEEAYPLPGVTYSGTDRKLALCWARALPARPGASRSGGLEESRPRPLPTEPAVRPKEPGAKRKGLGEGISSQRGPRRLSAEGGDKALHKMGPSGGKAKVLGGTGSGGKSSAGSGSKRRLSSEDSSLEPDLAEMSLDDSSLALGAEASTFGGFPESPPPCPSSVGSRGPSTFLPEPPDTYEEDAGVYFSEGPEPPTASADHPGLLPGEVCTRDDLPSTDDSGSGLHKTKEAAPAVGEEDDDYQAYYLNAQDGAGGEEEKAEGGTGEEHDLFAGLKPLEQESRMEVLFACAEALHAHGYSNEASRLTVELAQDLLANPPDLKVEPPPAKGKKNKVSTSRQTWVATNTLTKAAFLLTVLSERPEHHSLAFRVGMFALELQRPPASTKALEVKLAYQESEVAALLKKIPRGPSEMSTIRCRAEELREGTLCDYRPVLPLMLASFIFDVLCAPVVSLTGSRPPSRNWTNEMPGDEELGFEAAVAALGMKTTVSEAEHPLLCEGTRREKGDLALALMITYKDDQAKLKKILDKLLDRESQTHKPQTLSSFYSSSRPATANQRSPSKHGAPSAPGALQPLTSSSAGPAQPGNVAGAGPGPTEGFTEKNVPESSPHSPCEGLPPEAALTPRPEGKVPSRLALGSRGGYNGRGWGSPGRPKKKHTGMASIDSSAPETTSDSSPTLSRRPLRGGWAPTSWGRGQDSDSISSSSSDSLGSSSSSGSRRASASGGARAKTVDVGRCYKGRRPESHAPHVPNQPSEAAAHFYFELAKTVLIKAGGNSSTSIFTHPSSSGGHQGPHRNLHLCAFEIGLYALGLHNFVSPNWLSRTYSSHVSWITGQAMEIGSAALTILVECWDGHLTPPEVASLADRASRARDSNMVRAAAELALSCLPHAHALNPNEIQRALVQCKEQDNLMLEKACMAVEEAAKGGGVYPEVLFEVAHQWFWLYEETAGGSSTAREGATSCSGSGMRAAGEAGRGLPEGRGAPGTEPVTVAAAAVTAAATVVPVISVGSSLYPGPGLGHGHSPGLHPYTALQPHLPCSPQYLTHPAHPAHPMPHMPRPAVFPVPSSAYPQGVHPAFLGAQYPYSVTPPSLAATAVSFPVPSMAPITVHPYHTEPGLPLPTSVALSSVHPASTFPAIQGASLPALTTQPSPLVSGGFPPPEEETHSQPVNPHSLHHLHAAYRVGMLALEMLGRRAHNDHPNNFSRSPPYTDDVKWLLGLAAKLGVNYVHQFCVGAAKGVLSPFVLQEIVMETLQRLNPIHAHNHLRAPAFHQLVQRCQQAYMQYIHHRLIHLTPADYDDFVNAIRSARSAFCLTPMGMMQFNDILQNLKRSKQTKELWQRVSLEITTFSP

Test [1] addresses 3 × FLAG-tagged ZSWIM8, stably expressed in C2C12 cells (human) (UniProt A7E2V4). Briefly: co-IP; C2C12 cells stably expressing 3 × FLAG-ZSWIM8, with or without differentiation for 1 or 2 days; lysate immunoprecipitated with anti-FLAG antibody, immunoblot with anti-Cdon-N, Cdon-C, Bnip-2, JLP, FLAG or Cul2 antibody.
The target of test [2] is T1, endogenous Cdon of C2C12 cells (mouse (endogenous in C2C12)) (UniProt Q32MD9).
T1 sequence: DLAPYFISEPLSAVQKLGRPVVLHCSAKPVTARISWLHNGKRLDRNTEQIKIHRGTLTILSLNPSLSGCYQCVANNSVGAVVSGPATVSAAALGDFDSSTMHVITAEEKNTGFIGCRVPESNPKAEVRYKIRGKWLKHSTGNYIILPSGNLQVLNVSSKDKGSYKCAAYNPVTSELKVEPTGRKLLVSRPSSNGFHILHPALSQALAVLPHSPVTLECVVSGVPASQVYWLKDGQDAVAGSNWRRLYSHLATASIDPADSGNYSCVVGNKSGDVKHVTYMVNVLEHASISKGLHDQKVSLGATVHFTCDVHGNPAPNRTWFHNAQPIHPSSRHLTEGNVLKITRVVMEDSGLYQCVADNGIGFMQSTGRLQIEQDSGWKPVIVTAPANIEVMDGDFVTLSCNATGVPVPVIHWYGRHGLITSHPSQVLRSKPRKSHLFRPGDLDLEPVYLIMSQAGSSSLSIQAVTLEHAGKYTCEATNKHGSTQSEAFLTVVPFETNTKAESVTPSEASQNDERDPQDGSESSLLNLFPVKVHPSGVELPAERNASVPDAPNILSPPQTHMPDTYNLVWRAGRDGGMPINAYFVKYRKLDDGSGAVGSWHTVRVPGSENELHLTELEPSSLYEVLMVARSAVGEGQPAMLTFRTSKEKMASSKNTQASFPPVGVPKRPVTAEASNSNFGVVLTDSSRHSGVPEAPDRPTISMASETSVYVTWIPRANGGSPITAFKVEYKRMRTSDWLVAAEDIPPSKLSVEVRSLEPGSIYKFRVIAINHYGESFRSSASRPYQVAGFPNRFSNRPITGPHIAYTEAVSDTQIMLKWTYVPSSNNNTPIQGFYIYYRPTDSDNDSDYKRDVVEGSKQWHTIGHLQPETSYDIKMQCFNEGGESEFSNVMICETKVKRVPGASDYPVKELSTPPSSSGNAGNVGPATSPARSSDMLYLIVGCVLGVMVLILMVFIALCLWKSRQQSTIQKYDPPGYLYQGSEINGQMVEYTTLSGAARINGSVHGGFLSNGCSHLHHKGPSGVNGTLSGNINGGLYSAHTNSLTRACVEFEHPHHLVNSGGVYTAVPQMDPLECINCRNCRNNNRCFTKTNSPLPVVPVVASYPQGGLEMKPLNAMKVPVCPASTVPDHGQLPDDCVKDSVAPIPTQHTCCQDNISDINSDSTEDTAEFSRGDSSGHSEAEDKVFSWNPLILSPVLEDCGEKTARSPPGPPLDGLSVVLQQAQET
In words: co-IP; endogenous proteins; C2C12 cells differentiated for 4 days; lysate immunoprecipitated with anti-Cdon-C or control antibody, immunoblot with anti-ZSWIM8 and anti-Cdon-C.

Test [3] has as its target 3 × FLAG-tagged ZSWIM8 (zinc finger SWIM type containing 8), expressed in HEK293T cells (human) (UniProt A7E2V4). In words: co-IP; HEK293T cells co-transfected with 3 × FLAG-ZSWIM8 and non-tagged Cdon (FL or mutants), cultured 2 days; lysate (50 mM Tris-HCl pH 7.4, 150 mM NaCl, 1% Triton X-100) immunoprecipitated with anti-FLAG antibody and Protein A Sepharose at 4 °C, immunoblot with anti-Cdon-N.

“Cullin 2 (Cul2), endogenous in C2C12 cells (from UniProt Q9D4H8 1-745)”: the binding result in test [1] is recorded as “binds”.

As to “endogenous ZSWIM8 of C2C12 cells (from UniProt Q3UHH1 1-1832)”, in test [2], the binding entry was “binds”.

B1: c-Jun NH2-terminal kinase (JNK)-associated leucine zipper protein (JLP), endogenous in C2C12 cells (protein, UniProt Q58A65 1-1321)
chain: MELEDGVVYQEEPGGSGAVMSERVSGLAGSIYREFERLIGRYDEEVVKELMPLVVAVLENLDSVFAQDQEHQVELELLRDDNEQLITQYEREKALRKHAEEKFIEFEDSQEQEKKDLQTRVESLESQTRQLELKAKNYADQISRLEEREAELKKEYNALHQRHTEMIHNYMEHLERTKLHQLSGSDQLEATAHSRIRKERPISLGIFPLPAGDGLLTPDTQKGGETPGSEQWKFQELSQPRSHTSLKVSHSPEPPKAVEQEDELSDISQGGSKATTPASTANSDVSAIPPDTPSKEDNEGFVKGTDTSNKSEISKHIEVQVAQETRNVSTESGENEEKSEVQAIIESTPELDMDKDLSGYKGSSTPTKGIENKAFDRNTESLFEELSSAGSGLIGDVDEGADLLGMGREVENLILENTQLLETKNALNVVKNDLIAKVDELTCEKDVLQGELEAVKQAKLKLEDKNRELEEELRKARAEAEDARQKAKDDDDSDIPTAQRKRFTRVEMARVLMERNQYKERLMELQEAVRWTEMIRASRENPAMQEKKRSSIWQFFSRLFSSSSNATKKPEPPVNLKYNAPTSHVTPSVKKRSSTLSQLPGDKSKAFDFLSEETEASLASRREQKREQYRQVKAHVQKEDGRVQAFGWSLPQKYKQVANGQGETKMKNLPVPVYLRPLDEKDASMKLWCAVGVNLSGGKTRDGGSVVGASVFYKDIAGLDTEGSKQRSASQSSLDKLDQELKEQQKEFKNQEELSSQVWICTSTHSTTKVIIIDAVQPGNILDSFTVCNSHVLCIASVPGARETDYPAGEELSESGQVDKASLCGSMTSNSSAEMDSLLGGITVVGCSTEGLTGAATSPSTNGASPVIEKPPEMETENSEVDENIPTAEEATEATEGNAGSTEDTVDISQPGVYTEHVFTDPLGVQIPEDLSPVFQSSNDSDVYKDQISVLPNEQDLAREEAQKMSSLLPTMWLGAQNGCLYVHSSVAQWRKCLHSIKLKDSILSIVHVKGIVLVALADGTLAIFHRGVDGQWDLSNYHLLDLGRPHHSIRCMTVVHDKVWCGYRNKIYVVQPKAMKIEKSFDAHPRKESQVRQLAWVGDGVWVSIRLDSTLRLYHAHTYQHLQDVDIEPYVSKMLGTGKLGFSFVRITALMVSCNRLWVGTGNGVIISIPLTETNKTSGTPGNRPGSVIRVYGDENSDKVTPGTFIPYCSMAHAQLCFHGHRDAVKFFVAVPGQVISPQSSSGGADLTADKAGSSAQEPSSQTPLKSMLVISGGEGYIDFRMGDEGGESELLGEDLPLEPSVTKAERSHLIVWQVMCGNE
As to B1, the binding result in test [1] is “binds”.

B2: Cdon-Δ1043-1073, which lacks amino acids 1043–1073 (receptor, UniProt Q32MD9)
chain: DLAPYFISEPLSAVQKLGRPVVLHCSAKPVTARISWLHNGKRLDRNTEQIKIHRGTLTILSLNPSLSGCYQCVANNSVGAVVSGPATVSAAALGDFDSSTMHVITAEEKNTGFIGCRVPESNPKAEVRYKIRGKWLKHSTGNYIILPSGNLQVLNVSSKDKGSYKCAAYNPVTSELKVEPTGRKLLVSRPSSNGFHILHPALSQALAVLPHSPVTLECVVSGVPASQVYWLKDGQDAVAGSNWRRLYSHLATASIDPADSGNYSCVVGNKSGDVKHVTYMVNVLEHASISKGLHDQKVSLGATVHFTCDVHGNPAPNRTWFHNAQPIHPSSRHLTEGNVLKITRVVMEDSGLYQCVADNGIGFMQSTGRLQIEQDSGWKPVIVTAPANIEVMDGDFVTLSCNATGVPVPVIHWYGRHGLITSHPSQVLRSKPRKSHLFRPGDLDLEPVYLIMSQAGSSSLSIQAVTLEHAGKYTCEATNKHGSTQSEAFLTVVPFETNTKAESVTPSEASQNDERDPQDGSESSLLNLFPVKVHPSGVELPAERNASVPDAPNILSPPQTHMPDTYNLVWRAGRDGGMPINAYFVKYRKLDDGSGAVGSWHTVRVPGSENELHLTELEPSSLYEVLMVARSAVGEGQPAMLTFRTSKEKMASSKNTQASFPPVGVPKRPVTAEASNSNFGVVLTDSSRHSGVPEAPDRPTISMASETSVYVTWIPRANGGSPITAFKVEYKRMRTSDWLVAAEDIPPSKLSVEVRSLEPGSIYKFRVIAINHYGESFRSSASRPYQVAGFPNRFSNRPITGPHIAYTEAVSDTQIMLKWTYVPSSNNNTPIQGFYIYYRPTDSDNDSDYKRDVVEGSKQWHTIGHLQPETSYDIKMQCFNEGGESEFSNVMICETKVKRVPGASDYPVKELSTPPSSSGNAGNVGPATSPARSSDMLYLIVGCVLGVMVLILMVFIALCLWKSRQQSTIQKYDPPGYLYQGSEINGQMVEYTTLSGAARINGSVHGGFLSNGCSHLHHEFEHPHHLVNSGGVYTAVPQMDPLECINCRNCRNNNRCFTKTNSPLPVVPVVASYPQGGLEMKPLNAMKVPVCPASTVPDHGQLPDDCVKDSVAPIPTQHTCCQDNISDINSDSTEDTAEFSRGDSSGHSEAEDKVFSWNPLILSPVLEDCGEKTARSPPGPPLDGLSVVLQQAQET
In the case of B2, the binding result in test [3] is “binds”.

B3: BCL2 adenovirus E1B 19 kDa interacting protein 2 (Bnip-2), endogenous in C2C12 cells (protein, UniProt O54940 1-326)
chain: MEGVELKEEWQDEDFPIPLPEDDSIEADTLDGTDPDRQPGSLEVNGNKVRKKLMAPDISLTLDPGEDSLWSDDLDEAGEVDLEGLDTPSENSDEFEWEDDLPKPKTTEVIRKGSITEYTATEEKGDGRRWRMFRIGEQDHRVDMKAIEPYKKVISHGGYYGDGLNAIVVFAVCFMPESGQPNYRYLMDNLFKYVIGTLELLVAENYMIIYLNGATTRRKMPSLGWLRRCYQQIDRRLRKNLKSLIIVHPSWFIRTLLAVTRPFISSKFSQKIRYVFNLAELAELVPMEYVGIPECIKQYEEEKFKKRQKRVDQELNGKQEPPKSEQ
In the case of B3, the binding result in test [1] was “binds”.

B4: endogenous Cdon of C2C12 cells (receptor, UniProt Q32MD9 25-1250)
chain: T1 sequence
For B4, the binding result in test [1] is “binds”.
